Taken from: PubChem BioAssay AID1159578 (Peter MacCallum Cancer Centre, 2015)
Here is an unselected part of about 18,000 reagents tested. In the full data, about 1,030 (5.7%) are marked active. 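Inactive calls also include pools with fewer than 3300 nuclei, whose migration was not assessed.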 Raw values vary from plate to plate and are shown uncorrected. A number with no mark means an inactive call.

- Assay: 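siRNA pools altering how lymphatic endothelial cells close a scratch wound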 (primary screen)
- Cells: human lymphatic endothelial cells
- Reagent: siRNA pool against human genes, 40 nM
- Timing: 48 h after transfection
- Measurement: 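Cells stained with dye and imaged after a scratch; covered wound area and nuclei counted, duplicates averaged, migration set against mock wells and turned into a robust z-score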
- Reading the numbers: migration robust z-score: higher = faster migration into the scratch; migration relative to mock: higher = more scratch area covered than mock; nuclei per well: higher = more cells in the well
- Rule for the call: 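Migration changed when robust z exceeds 2 or falls below -2 and mean nuclei number is at least 3300; otherwise not called changed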
- Calls: active = migration changed; inactive = no migration change, or too few cells

| Target gene | PubChem SID | migration robust z-score | migration class with cell-count check | migration relative to mock | nuclei per well, duplicate mean |
| --- | --- | --- | --- | --- | --- |
| MAGEF1 (MAGE family member F1) | SID255359835 | -0.02 | migration z between -2 and 2; enough cells | 0.88 | 5496 |
| KLHL9 (kelch like family member 9) | SID255358965 | -0.38 | migration z between -2 and 2; enough cells | 0.79 | 4382 |
| FBXO46 (F-box protein 46) | SID255356215 | -0.46 | migration z between -2 and 2; enough cells | 0.72 | 5434 |
| PREPL (prolyl endopeptidase like) | SID255354389 | 0.15 | migration z between -2 and 2; enough cells | 0.84 | 5974 |
| PCYT2 (phosphate cytidylyltransferase 2, ethanolamine) | SID255351990 | -0.15 | migration z between -2 and 2; enough cells | 0.77 | 5962 |
| HRG (histidine rich glycoprotein) | SID255350311 | 2.25 (active) | migration z above 2; enough cells | 1.47 | 5194 |
| BAG4 (BAG cochaperone 4) | SID255354349 | 1.38 | migration z between -2 and 2; enough cells | 1.07 | 5604 |
| AIFM3 (AIF family member 3) | SID255363442 | -0.18 | migration z between -2 and 2; enough cells | 0.77 | 4284 |
| DBN1 (drebrin 1) | SID255349247 | 0.26 | migration z between -2 and 2; enough cells | 0.95 | 6435 |
| SUGP1 (SURP and G-patch domain containing 1) | SID255359591 | 1.75 | migration z between -2 and 2; enough cells | 1.34 | 5096 |
| NBPF9 (NBPF member 9) | SID255365760 | -0.07 | migration z between -2 and 2; enough cells | 0.87 | 5406 |
| SETD6 (SET domain containing 6, protein lysine methyltransferase) | SID255360565 | -0.56 | migration z between -2 and 2; enough cells | 0.74 | 6180 |
| NUDCD1 (NudC domain containing 1) | SID255361608 | 0.76 | migration z between -2 and 2; enough cells | 1.08 | 6650 |
| OR2M2 (olfactory receptor family 2 subfamily M member 2) | SID255365686 | -1.1 | migration z between -2 and 2; enough cells | 0.6 | 5222 |
| TAS2R4 (taste 2 receptor member 4) | SID255357367 | 1.5 | migration z between -2 and 2; enough cells | 1.27 | 6513 |
| FAM107B (family with sequence similarity 107 member B) | SID255361047 | -1.14 | migration z between -2 and 2; enough cells | 0.59 | 6169 |
| SULF2 (sulfatase 2) | SID255358966 | 0.13 | migration z between -2 and 2; enough cells | 0.83 | 5819 |
| NUP98 (nucleoporin 98 and 96 precursor) | SID255351325 | 0.65 | migration z between -2 and 2; enough cells | 0.93 | 5556 |
| DYRK3 (dual specificity tyrosine phosphorylation regulated kinase 3) | SID255353555 | -1.06 | migration z between -2 and 2; enough cells | 0.6 | 3795 |
| ATP6V1A (ATPase H+ transporting V1 subunit A) | SID255348471 | 0.67 | migration z between -2 and 2; enough cells | 0.94 | 5414 |
| GPR32 (G protein-coupled receptor 32) | SID255350001 | -0.06 | migration z between -2 and 2; enough cells | 0.8 | 4818 |
| PDE8A (phosphodiesterase 8A) | SID255351477 | 1.19 | migration z between -2 and 2; enough cells | 1.04 | 4552 |
| APLF (aprataxin and PNKP like factor) | SID255364042 | -1.38 | migration z between -2 and 2; enough cells | 0.52 | 5554 |
| MEPE (matrix extracellular phosphoglycoprotein) | SID255359196 | 0.48 | migration z between -2 and 2; enough cells | 1.01 | 6057 |
| PKD2L1 | SID255353980 | -0.78 | migration z between -2 and 2; enough cells | 0.66 | 4104 |
| TTLL13 (tubulin tyrosine ligase like 13) | SID255365904 | 0.69 | migration z between -2 and 2; enough cells | 1.06 | 6072 |
| RPS10 (ribosomal protein S10) | SID255352220 | -0.44 | migration z between -2 and 2; enough cells | 0.78 | 3839 |
| SCN4B (sodium voltage-gated channel beta subunit 4) | SID255352305 | 0.28 | migration z between -2 and 2; enough cells | 0.86 | 6116 |
| TMUB2 (transmembrane and ubiquitin like domain containing 2) | SID255360211 | 0.48 | migration z between -2 and 2; enough cells | 1 | 6219 |
| TMEM215 (transmembrane protein 215) | SID255365790 | -0.05 | migration z between -2 and 2; enough cells | 0.87 | 5794 |
| NACA2 (nascent polypeptide associated complex subunit alpha 2) | SID255365138 | 0.92 | migration z between -2 and 2; enough cells | 1.12 | 6685 |
| TINF2 (TERF1 interacting nuclear factor 2) | SID255356755 | -0.12 | migration z between -2 and 2; enough cells | 0.86 | 4874 |
| GDF15 (growth differentiation factor 15) | SID255354338 | -0.65 | migration z between -2 and 2; enough cells | 0.68 | 5334 |
| PNMA6A (PNMA family member 6A) | SID255361618 | -1.76 | migration z between -2 and 2; enough cells | 0.44 | 5230 |
| EIF4B (eukaryotic translation initiation factor 4B) | SID255349468 | 2.81 (active) | migration z above 2; enough cells | 1.34 | 5757 |
| RSRC2 (arginine and serine rich coiled-coil 2) | SID255360093 | -0.23 | migration z between -2 and 2; enough cells | 0.82 | 6322 |
| GNB4 (G protein subunit beta 4) | SID255359690 | -0.02 | migration z between -2 and 2; enough cells | 0.8 | 5788 |
| ZCCHC17 (zinc finger CCHC-type containing 17) | SID255357774 | 1.24 | migration z between -2 and 2; enough cells | 1.2 | 5524 |
| LINC00477 (long independently transcribed non-coding RNA 477) | SID255363219 | -0.19 | migration z between -2 and 2; enough cells | 0.84 | 7100 |
| C3P1 (complement 3 precursor pseudogene) | SID255365491 | 2.29 (active) | migration z above 2; enough cells | 1.48 | 6630 |
| PDCD7 (programmed cell death 7) | SID255354792 | -1.66 | under 3300 nuclei; migration not judged | 0.45 | 3096 |
| FASN (fatty acid synthase) | SID255349631 | -0.5 | migration z between -2 and 2; enough cells | 0.71 | 3633 |
| KPNA6 (karyopherin subunit alpha 6) | SID255356380 | 0.57 | migration z between -2 and 2; enough cells | 0.92 | 6855 |
| METAP1D (methionyl aminopeptidase type 1D, mitochondrial) | SID255364441 | 1.35 | migration z between -2 and 2; enough cells | 1.06 | 5691 |
| EPPIN (epididymal peptidase inhibitor) | SID255359278 | 0.96 | migration z between -2 and 2; enough cells | 1.14 | 5915 |
| RAB2A (RAB2A, member RAS oncogene family) | SID255351998 | -0.64 | migration z between -2 and 2; enough cells | 0.72 | 5988 |
| GYG2 (glycogenin 2) | SID255353912 | 0 | migration z between -2 and 2; enough cells | 0.8 | 6256 |
| SLC36A3 | SID255364870 | -1.48 | migration z between -2 and 2; enough cells | 0.5 | 5919 |
| CFAP45 (cilia and flagella associated protein 45) | SID255356460 | -1.36 | migration z between -2 and 2; enough cells | 0.54 | 4402 |
| RBM34 (RNA binding motif protein 34) | SID255355938 | -1.03 | migration z between -2 and 2; enough cells | 0.61 | 6682 |
| ZNF746 (zinc finger protein 746) | SID255363610 | 0 | migration z between -2 and 2; enough cells | 0.88 | 6469 |
| CASP14 (caspase 14) | SID255356342 | -1.04 | migration z between -2 and 2; enough cells | 0.6 | 5360 |
| NOP56 (NOP56 ribonucleoprotein) | SID255355154 | 0.1 | migration z between -2 and 2; enough cells | 0.92 | 6158 |
| CDH13 (cadherin 13) | SID255348832 | 0.4 | migration z between -2 and 2; enough cells | 0.99 | 6846 |
| GNB1L (G protein subunit beta 1 like) | SID255358097 | -0.62 | migration z between -2 and 2; enough cells | 0.72 | 5804 |
| SNCAIP (synuclein alpha interacting protein) | SID255354422 | 0.56 | migration z between -2 and 2; enough cells | 1.03 | 4074 |
| PXDNL (peroxidasin like) | SID255363032 | 0.36 | migration z between -2 and 2; enough cells | 0.88 | 5060 |
| MRPS26 (mitochondrial ribosomal protein S26) | SID255360057 | -0.33 | migration z between -2 and 2; enough cells | 0.8 | 6002 |
| KCNE2 | SID255354725 | -1.09 | migration z between -2 and 2; enough cells | 0.6 | 4521 |
| SEC24A (SEC24 homolog A, COPII component) | SID255355363 | 0.72 | migration z between -2 and 2; enough cells | 0.94 | 6866 |
| SPAG5 (sperm associated antigen 5) | SID255355227 | -0.06 | migration z between -2 and 2; enough cells | 0.86 | 4519 |
| SLC10A4 | SID255364090 | -0.44 | migration z between -2 and 2; enough cells | 0.72 | 5264 |
| SMARCB1 (SWI/SNF related BAF chromatin remodeling complex subunit B1) | SID255352519 | -0.16 | migration z between -2 and 2; enough cells | 0.77 | 5604 |
| NECTIN1 (nectin cell adhesion molecule 1) | SID255351979 | 0.66 | migration z between -2 and 2; enough cells | 1.05 | 4927 |
| CYS1 (cystin 1) | SID255363947 | -0.3 | migration z between -2 and 2; enough cells | 0.8 | 5456 |
| CT83 (cancer/testis antigen 83) | SID255364127 | -0.21 | migration z between -2 and 2; enough cells | 0.83 | 5680 |
| SLC25A28 | SID255360978 | 0.14 | migration z between -2 and 2; enough cells | 0.92 | 5310 |
| DEPDC5 (DEP domain containing 5, GATOR1 subcomplex subunit) | SID255354466 | 0.77 | migration z between -2 and 2; enough cells | 1.08 | 6558 |
| FCHO2 (FCH and mu domain containing endocytic adaptor 2) | SID255362313 | 0.04 | migration z between -2 and 2; enough cells | 0.9 | 7121 |
| PSMB9 (proteasome 20S subunit beta 9) | SID255351892 | 2.08 (active) | migration z above 2; enough cells | 1.21 | 6612 |
| LOC284009 | SID255364726 | -0.57 | migration z between -2 and 2; enough cells | 0.74 | 4926 |
| ENC1 (ectodermal-neural cortex 1) | SID255353603 | 0.49 | migration z between -2 and 2; enough cells | 0.9 | 4546 |
| H4C5 (H4 clustered histone 5) | SID255353510 | -0.18 | migration z between -2 and 2; enough cells | 0.84 | 5893 |

Entries listed so far whose gene name starts with G or g (5):
| Target gene | PubChem SID | migration robust z-score | migration class with cell-count check | migration relative to mock | nuclei per well, duplicate mean |
| --- | --- | --- | --- | --- | --- |
| GPR32 (G protein-coupled receptor 32) | SID255350001 | -0.06 | migration z between -2 and 2; enough cells | 0.8 | 4818 |
| GDF15 (growth differentiation factor 15) | SID255354338 | -0.65 | migration z between -2 and 2; enough cells | 0.68 | 5334 |
| GNB4 (G protein subunit beta 4) | SID255359690 | -0.02 | migration z between -2 and 2; enough cells | 0.8 | 5788 |
| GYG2 (glycogenin 2) | SID255353912 | 0 | migration z between -2 and 2; enough cells | 0.8 | 6256 |
| GNB1L (G protein subunit beta 1 like) | SID255358097 | -0.62 | migration z between -2 and 2; enough cells | 0.72 | 5804 |
